From publication PMC6508795
No constants are given. Whether binding was seen depends on the method and setting. Binding seen in cells or lysates may run through a third protein. These calls come from enrichment with a bait or labelling near it, and not all partners need be listed.

Amino acid sequences for entries named in this document (tags omitted). Residues count along the entry.
UniProt P56753: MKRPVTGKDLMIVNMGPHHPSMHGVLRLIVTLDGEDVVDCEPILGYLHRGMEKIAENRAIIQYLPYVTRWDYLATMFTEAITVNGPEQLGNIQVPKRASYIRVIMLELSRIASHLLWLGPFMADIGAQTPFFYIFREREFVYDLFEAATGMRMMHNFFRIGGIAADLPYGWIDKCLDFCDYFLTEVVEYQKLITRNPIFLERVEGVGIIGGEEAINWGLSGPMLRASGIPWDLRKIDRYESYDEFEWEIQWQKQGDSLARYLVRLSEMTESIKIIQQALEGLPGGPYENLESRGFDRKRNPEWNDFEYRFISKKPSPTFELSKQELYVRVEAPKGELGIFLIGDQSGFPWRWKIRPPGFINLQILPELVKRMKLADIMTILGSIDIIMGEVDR
UniProt Q9S9N6, residues 45-461: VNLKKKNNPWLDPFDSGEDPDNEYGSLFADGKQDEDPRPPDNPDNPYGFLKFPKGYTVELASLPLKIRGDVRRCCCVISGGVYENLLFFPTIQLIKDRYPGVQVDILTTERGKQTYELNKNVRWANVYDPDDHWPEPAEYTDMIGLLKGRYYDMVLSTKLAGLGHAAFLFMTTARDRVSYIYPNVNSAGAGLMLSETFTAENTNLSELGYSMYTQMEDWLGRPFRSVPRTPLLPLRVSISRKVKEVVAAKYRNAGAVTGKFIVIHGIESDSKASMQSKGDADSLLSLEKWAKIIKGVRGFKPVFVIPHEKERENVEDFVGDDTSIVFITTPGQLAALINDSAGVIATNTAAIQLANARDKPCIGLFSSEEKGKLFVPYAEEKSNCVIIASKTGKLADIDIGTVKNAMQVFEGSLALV

B1: NdhS (CRR31) (protein, UniProt Q9T0A4 49-250)
chain: AMGKFNLWEVMGGRGLCNGEKGIEKELQRNIEDEQETSKAENNETERESDDSNLSFKVPEDGFEKEMMGLTGGFPGGEKGLKTFIEKNPPPPPPPPPAKQGSDASAVATDKKPKAPKLPLLMPGMIAIVKNQNSPYHMYCGIVQRITDGKAGVLFEGGNWDRLITFRLEELERREKGPPGKNPKSCILEPLIEQMQKEEAAP
B2: PROTON GRADIENT REGULATION 5 (PGR5) (protein, UniProt Q9SL05 61-133)
chain: KNVNEGKGLFAPLVVVTRNLVGKKRFNQLRGKAIALHSQVITEFCKSIGADAKQRQGLIRLAKKNGERLGFLA

target: T1, NADPH-thioredoxin reductase (NTRC) (Arabidopsis thaliana (endogenous in leaves)) (UniProt O22229); assay: affinity purification with mass spectrometry; Co-IP from WT, ntrc and OE-NTRC total leaf extracts (Pierce IP Lysis buffer, 1% NP-40) on a resin with affinity-purified NTRC-specific antibody (Pierce Co-IP kit); eluates analysed by MS; hits: at least two unique peptides in WT/OE-NTRC eluates and absent from ntrc eluates
T1 sequence: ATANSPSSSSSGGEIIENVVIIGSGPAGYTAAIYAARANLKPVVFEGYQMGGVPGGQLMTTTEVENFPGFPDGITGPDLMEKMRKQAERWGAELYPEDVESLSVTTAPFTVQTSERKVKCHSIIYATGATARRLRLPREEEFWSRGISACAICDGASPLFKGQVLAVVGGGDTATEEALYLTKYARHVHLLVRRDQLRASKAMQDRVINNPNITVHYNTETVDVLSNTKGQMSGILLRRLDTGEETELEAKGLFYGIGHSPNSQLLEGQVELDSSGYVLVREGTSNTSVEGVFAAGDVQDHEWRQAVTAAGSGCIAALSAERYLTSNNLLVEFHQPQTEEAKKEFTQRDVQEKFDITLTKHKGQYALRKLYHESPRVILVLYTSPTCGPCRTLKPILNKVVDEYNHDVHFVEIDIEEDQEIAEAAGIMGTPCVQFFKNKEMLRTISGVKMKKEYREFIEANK

**Q.** For NdhH (from UniProt P56753 1-393), which binding is on record?
**A.** binds

**Q.** For “Ndh48 (NDF1) (from UniProt Q9S9N6 45-461)”, which binding is on record?
**A.** binds

**Q.** B1 was tested. Which binding did it give?
**A.** binds

**Q.** How did the binding turn out when B2 was run?
**A.** binds
